Laboratory results published in PMC10458893, “Design of Protegrin-1 Analogs with Improved Antibacterial Selectivity” (Pharmaceutics, 2023).
Positions of bridges follow the written chain, without caps; N, C: chain ends. Residues, ends and D or L forms follow the SMILES beside them.

Tested on: all the test strains
Assay type: cell-based
Conditions: 128 μM used for MHC when less than 2% hemolysis at 64 μM
Method: The antimicrobial activity of the peptides was determined using two-fold serial dilutions in sterile 96-well flat-bottom polystyrene microplates (Eppendorf, Hamburg, Germany) (Cat. No. 0030730011), as previously described. The following strains of bacteria were used: E. coli ATCC 25922, E. coli ML35p (ATCC collection), E. coli BW 25113 (Keio collection), Pseudomonas aeruginosa PAO1 (ATCC collection), P. aeruginosa ATCC 27853, Klebsiella pneumoniae ATCC 700603, Staphylococcus aureus 209P (ATCC collection), S. aureus ATCC 29213, and Micrococcus luteus B-1314 (VKM collection). Acinetobacter baumannii (strain XDR CI 2675) was provided by the I.M. Sechenov First Moscow State Medical University hospital. After a 24 h incubation period, the metabolic activity of the bacteria was assessed by adding 20 µL of a redox indicator, resazurin (Sigma-Aldrich, St. Louis, MO, USA), at a concentration of 0.1 mg/mL, to the wells. The plate was then incubated for a further two hours. The minimum inhibitory concentration (MIC) was determined as the lowest concentration of the peptide at which no color change in the resazurin indicator was observed. The results were presented as median values, which were determined based on at least three independent experiments carried out in triplicate.

Structure (SMILES): CC(C)C[C@H](NC(=O)[C@H](CCCNC(=N)N)NC(=O)CNC(=O)CNC(=O)[C@@H](N)CCCNC(=N)N)C(=O)N[C@H]1CSSC[C@@H](C(=O)N[C@H](C(=O)NCC(=O)N[C@@H](CCCNC(=N)N)C(=O)O)C(C)C)NC(=O)[C@H](C(C)C)NC(=O)[C@@H]2CSSC[C@H](NC(=O)[C@H]([C@@H](C)O)NC1=O)C(=O)N[C@@H](CCCNC(=N)N)C(=O)N[C@@H](CCCNC(=N)N)C(=O)N[C@@H](CCCNC(=N)N)C(=O)N[C@@H](Cc1ccccc1)C(=O)N2 [[Y7T]] (H-RGGRLCTCRRRFCVCVGR-OH; disulfide 6-15, 8-13; N-terminus and C-terminus assumed)
- TI, therapeutic index (ratio of the MHC to the MIC (GM)): 7.6
